Measurements from the supplement of paper PMC11732987, “Enantioselective OTUD7B fragment discovery through chemoproteomics screening and high-throughput optimisation” (Communications Chemistry, 2025).
The other results are listed elsewhere or left out. The data scatter; read single values as rough.

Sequences of proteins named here, by UniProt entry; tags and fusion partners are left off. A change or cut given only in a name is not applied to a line headed by its entry. Residues count along the entry.
UniProt Q9UPU5: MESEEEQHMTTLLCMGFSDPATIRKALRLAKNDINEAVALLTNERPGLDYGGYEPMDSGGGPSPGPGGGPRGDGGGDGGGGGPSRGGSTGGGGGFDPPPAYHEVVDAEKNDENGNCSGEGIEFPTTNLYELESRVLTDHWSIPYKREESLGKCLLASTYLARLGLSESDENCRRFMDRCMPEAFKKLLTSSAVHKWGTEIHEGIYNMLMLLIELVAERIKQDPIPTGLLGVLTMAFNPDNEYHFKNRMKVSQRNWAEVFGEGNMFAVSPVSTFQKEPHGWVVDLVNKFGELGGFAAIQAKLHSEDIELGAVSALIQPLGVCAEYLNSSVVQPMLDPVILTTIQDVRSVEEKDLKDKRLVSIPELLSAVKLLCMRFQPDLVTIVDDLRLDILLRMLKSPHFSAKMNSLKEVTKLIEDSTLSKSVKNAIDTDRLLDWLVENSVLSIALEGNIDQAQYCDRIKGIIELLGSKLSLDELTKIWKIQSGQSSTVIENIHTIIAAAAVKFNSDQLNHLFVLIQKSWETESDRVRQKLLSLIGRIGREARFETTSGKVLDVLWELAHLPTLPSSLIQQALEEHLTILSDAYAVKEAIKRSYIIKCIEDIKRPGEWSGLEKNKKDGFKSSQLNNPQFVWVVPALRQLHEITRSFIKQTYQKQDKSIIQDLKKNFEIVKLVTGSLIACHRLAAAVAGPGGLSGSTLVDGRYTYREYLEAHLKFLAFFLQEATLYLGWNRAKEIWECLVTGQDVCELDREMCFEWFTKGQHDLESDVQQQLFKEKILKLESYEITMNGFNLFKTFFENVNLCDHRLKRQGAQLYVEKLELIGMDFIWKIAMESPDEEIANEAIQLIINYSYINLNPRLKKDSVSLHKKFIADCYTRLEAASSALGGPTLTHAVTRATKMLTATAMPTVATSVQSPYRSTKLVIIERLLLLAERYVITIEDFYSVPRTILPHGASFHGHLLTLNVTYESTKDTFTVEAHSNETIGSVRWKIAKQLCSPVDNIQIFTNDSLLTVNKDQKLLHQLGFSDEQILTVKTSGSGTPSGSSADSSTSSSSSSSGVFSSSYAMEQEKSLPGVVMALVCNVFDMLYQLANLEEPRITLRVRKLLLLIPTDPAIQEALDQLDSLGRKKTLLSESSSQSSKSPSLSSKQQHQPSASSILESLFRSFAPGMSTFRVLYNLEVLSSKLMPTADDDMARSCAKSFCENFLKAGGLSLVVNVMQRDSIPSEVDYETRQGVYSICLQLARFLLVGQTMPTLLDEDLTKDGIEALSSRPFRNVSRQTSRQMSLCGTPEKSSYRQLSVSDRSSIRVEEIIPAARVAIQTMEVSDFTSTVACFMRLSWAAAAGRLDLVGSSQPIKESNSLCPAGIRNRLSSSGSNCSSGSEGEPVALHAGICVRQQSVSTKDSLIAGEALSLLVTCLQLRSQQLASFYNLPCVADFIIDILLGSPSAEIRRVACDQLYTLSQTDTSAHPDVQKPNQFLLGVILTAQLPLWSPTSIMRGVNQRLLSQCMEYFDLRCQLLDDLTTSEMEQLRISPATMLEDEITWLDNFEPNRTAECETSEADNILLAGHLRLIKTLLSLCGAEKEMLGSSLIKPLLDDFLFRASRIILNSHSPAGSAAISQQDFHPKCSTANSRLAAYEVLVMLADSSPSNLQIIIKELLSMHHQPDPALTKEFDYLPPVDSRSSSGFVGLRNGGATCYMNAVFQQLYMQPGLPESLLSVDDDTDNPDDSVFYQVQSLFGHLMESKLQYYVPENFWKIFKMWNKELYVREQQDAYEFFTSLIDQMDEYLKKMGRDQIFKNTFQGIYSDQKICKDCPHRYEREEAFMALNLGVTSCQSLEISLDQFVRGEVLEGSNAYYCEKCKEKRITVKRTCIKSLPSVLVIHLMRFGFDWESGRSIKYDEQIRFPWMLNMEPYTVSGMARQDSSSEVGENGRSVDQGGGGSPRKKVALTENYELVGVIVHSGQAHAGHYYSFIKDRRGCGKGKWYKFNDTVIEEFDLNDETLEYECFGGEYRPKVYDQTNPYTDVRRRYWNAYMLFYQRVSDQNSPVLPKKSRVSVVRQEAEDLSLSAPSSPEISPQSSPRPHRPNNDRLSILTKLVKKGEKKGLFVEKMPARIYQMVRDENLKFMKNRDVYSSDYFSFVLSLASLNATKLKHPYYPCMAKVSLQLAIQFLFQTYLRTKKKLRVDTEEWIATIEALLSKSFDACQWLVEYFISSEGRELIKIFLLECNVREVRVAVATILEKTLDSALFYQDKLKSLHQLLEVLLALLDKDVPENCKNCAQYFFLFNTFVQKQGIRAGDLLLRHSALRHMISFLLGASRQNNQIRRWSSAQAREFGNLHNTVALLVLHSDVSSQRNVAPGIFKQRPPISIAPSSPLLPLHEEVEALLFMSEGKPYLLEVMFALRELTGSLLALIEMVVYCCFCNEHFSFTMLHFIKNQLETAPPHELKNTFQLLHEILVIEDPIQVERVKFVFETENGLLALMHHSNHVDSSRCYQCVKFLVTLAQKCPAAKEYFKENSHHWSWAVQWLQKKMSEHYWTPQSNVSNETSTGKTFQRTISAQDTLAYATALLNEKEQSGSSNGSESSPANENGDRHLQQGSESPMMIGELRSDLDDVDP
UniProt O75691, 1754-1774: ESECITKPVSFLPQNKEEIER
UniProt P08670, 322-342: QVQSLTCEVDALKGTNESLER
UniProt Q8TEY7, 752-774: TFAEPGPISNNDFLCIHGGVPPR
UniProt P31930, 143-163: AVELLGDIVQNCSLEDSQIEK
UniProt Q9H3U1: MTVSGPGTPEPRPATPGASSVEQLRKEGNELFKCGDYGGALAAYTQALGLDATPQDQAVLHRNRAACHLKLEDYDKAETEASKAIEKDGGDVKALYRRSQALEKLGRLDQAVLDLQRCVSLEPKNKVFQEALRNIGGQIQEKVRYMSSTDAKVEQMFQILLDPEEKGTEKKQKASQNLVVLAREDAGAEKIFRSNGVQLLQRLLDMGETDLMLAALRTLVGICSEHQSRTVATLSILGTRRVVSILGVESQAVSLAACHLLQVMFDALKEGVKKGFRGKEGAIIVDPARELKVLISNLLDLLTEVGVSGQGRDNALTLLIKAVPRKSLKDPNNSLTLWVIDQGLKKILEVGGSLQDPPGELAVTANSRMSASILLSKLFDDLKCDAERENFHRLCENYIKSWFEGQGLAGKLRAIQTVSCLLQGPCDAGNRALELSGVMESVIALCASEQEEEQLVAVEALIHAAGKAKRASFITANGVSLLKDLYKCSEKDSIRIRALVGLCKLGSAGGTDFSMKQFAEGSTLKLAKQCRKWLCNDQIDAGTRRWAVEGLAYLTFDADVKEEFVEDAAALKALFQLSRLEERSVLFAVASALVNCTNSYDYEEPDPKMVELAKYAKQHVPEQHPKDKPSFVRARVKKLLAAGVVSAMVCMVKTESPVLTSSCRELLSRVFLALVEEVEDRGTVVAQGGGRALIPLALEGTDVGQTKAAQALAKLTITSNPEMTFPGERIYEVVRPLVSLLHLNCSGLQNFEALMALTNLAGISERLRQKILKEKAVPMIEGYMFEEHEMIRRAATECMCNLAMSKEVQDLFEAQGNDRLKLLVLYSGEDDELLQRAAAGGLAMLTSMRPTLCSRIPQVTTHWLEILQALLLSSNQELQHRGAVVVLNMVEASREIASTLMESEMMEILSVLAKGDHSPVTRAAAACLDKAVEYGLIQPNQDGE
UniProt Q9H269, 806-828: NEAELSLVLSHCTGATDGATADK
UniProt O95071: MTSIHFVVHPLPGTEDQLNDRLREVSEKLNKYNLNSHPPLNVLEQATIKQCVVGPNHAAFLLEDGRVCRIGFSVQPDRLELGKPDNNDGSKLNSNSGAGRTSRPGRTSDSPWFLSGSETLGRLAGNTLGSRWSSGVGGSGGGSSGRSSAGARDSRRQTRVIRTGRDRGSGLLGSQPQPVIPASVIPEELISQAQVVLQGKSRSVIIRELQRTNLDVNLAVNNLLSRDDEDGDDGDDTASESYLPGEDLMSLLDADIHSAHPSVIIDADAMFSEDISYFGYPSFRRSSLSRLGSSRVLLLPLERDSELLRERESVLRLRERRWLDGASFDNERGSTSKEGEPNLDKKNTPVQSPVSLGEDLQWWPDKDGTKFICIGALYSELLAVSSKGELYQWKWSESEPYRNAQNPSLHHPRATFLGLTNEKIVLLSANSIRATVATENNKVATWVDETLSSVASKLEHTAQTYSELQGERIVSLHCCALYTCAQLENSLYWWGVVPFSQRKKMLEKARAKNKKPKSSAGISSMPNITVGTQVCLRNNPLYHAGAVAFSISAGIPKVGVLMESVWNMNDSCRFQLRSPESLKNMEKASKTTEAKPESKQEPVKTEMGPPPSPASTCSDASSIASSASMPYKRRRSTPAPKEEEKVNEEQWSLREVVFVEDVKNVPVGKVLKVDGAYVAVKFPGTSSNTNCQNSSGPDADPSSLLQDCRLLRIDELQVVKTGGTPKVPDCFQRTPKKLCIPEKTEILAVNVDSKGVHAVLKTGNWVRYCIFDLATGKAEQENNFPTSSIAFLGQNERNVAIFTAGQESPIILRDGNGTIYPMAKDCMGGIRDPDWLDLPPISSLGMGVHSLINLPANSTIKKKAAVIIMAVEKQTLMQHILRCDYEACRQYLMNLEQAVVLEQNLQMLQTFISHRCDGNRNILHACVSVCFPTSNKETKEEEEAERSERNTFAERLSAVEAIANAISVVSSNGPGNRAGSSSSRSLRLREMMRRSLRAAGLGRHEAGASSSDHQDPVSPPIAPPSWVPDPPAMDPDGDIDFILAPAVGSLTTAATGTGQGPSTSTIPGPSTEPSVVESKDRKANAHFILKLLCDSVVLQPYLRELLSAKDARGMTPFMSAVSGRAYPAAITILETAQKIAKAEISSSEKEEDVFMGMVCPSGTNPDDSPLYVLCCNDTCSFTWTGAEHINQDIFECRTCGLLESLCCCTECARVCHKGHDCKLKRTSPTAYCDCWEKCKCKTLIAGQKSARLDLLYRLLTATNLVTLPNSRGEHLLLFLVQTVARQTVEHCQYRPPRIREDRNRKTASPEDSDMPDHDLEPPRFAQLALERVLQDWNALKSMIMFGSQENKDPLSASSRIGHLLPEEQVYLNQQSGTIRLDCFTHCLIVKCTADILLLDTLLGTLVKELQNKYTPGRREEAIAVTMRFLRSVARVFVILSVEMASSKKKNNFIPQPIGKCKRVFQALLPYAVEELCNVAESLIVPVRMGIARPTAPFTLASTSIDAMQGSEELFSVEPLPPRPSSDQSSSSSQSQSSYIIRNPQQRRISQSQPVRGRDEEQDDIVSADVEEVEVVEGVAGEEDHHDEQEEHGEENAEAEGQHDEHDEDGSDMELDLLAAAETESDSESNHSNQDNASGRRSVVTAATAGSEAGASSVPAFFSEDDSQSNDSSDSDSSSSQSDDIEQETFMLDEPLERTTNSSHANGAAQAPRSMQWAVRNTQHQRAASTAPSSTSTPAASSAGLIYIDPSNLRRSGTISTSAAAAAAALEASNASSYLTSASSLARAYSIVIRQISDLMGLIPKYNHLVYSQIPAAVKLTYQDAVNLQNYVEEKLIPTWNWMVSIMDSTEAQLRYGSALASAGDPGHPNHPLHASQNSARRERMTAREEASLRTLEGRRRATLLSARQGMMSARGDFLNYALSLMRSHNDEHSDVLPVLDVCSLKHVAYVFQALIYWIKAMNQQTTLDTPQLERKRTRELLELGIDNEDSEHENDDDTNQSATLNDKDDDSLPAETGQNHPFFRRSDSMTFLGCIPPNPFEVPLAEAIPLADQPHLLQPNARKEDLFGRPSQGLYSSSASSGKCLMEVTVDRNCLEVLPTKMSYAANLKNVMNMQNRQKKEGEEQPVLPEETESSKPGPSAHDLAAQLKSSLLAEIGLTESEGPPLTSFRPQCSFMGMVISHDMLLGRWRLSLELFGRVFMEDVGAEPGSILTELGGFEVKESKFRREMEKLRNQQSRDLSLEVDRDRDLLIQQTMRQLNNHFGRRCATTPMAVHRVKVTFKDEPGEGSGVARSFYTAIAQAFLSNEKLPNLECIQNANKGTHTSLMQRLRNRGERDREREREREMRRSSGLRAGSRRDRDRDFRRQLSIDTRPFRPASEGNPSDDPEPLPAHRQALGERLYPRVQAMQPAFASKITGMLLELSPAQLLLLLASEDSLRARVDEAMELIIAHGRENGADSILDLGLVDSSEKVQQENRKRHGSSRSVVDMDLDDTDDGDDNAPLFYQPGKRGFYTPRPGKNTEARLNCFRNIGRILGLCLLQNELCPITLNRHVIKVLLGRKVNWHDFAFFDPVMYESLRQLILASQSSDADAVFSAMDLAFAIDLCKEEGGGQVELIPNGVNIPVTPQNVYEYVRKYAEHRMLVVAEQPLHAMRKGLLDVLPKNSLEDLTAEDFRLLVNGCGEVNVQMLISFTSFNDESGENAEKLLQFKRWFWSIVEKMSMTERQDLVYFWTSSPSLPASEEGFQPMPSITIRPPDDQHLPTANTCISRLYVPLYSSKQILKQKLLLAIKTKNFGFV
UniProt Q86UV5, 1004-1028: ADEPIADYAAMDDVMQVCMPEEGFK
UniProt P46939, 275-297: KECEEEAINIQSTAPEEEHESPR
UniProt Q5THJ4, 1452-1472: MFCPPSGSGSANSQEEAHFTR
UniProt O60763, 678-698: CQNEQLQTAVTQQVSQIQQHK

Key:
[1] = compound: ClCC(=O)N[C@@H]1CCCc2ccccc12; assay: log2 mean competition ratio of IA-DTB cysteine labelling (DMSO/compound) (log2 ratio); higher = stronger cysteine engagement by compound; details: treatment time: 4 h, cell line lysate: HEK293T
Method: (§1)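 IA-DTB competitive cysteine chemoproteomics in HEK293T RIPA lysate. Lysates were treated with compound 29 or 30 at 50 or 200 µM for 4 h, then IA-DTB (500 µM, 1 h), trypsin-digested, NeutrAvidin-enriched and analysed by diaPASEF. Competition ratio = intensity DMSO / intensity compound (n=4 treated, n=64 DMSO); binding: mean log2 CR ≥ 1 and p ≤ 0.05 plus QC filters. Target is the cysteine site.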

[2] = compound: ClCC(=O)N[C@H]1CCCc2ccccc12; assay: as above; details: treatment time: 4 h, cell line lysate: HEK293T
Method: as §1

Target	log2 mean competition ratio ([1]; 50 µM)	log2 mean competition ratio ([1]; 200 µM)	log2 mean competition ratio ([2]; 50 µM)	log2 mean competition ratio ([2]; 200 µM)
USP38 C525 (UniProt Q8NB14)	0.129	0.379	-0.369	0.206
UCK2 C241 (UniProt Q9BZX2)	-0.101	0.172	0.0957	0.169
USP7 C334	-0.124	0.067	-0.00435	0.0743
USP9X C1908 (UniProt Q93008)	-0.113	0.162	-0.226	0.553
UXS1 C230 (UniProt Q8NBZ7)	0.15	-0.0576	0.0508	0.046
USP9X C577 (UniProt Q93008)	-0.396	-0.157	-0.224	0.0835
USP24 C2160 (UniProt Q9UPU5)	0.63	0.959	0.21	0.685
UTP20 C1730 (UniProt O75691)	-0.247	0.396	-0.313	0.461
USP24 C1362 (UniProt Q9UPU5)	0.0356	-0.0556	0.335	-0.0695
VCPIP1 C397 (UniProt Q96JH7)	-0.0962	0.0968	-0.174	0.0568
UPF1 C165 (UniProt Q92900)	0.495	-0.168		-0.188
USP24 C1287 (UniProt Q9UPU5)	-0.288	0.214	0.0954	0.269
VIM C328 (UniProt P08670)	-0.627	0.0826	-0.152	0.256
USP16 C509 (UniProt Q9Y5T5)	-0.0456	-0.166	-0.0446	-0.0912
UTP20 C1072 (UniProt O75691)	-0.026	0.266	-0.207	0.321
USP5 C195	-0.16	-0.151	0.03	0.11
USP35 C213	-0.123	0.178		0.296
USP33 C766 (UniProt Q8TEY7)	0.371	0.129	-0.303	-0.0394
UTP20 C1644 (UniProt O75691)	-0.344	-0.173	-0.058	-0.452
UTY C76	0.227	-0.332		-0.312
USP9Y C2294	-0.0753	-0.127	-0.429	-0.0893
UQCRC1 C154 (UniProt P31930)	-0.252	-0.417	-0.0682	-0.395
VBP1 C113 (UniProt P61758)	0.552	0.277	0.403	0.433
VPS13C C1372 (UniProt Q709C8)	-0.419	-0.224	0.331	-0.313
UBR4 C953 (UniProt Q5T4S7)	-0.156	0.0484	-0.164	-0.0307

Target	log2 mean competition ratio ([1]; 50 µM)	log2 mean competition ratio ([1]; 200 µM)	log2 mean competition ratio ([2]; 50 µM)	log2 mean competition ratio ([2]; 200 µM)
VCAN C3296	0.126	-0.00579	-0.281	-0.214
UNC45A C223 (UniProt Q9H3U1)	-0.0751	-0.103	-0.101	-0.168
UTP4 C67 (UniProt Q969X6)	-0.161	0.00833	0.063	0.0343
VPS11 C128 (UniProt Q9H270)	-0.199	0.0715	0.192	0.236
VPS16 C817 (UniProt Q9H269)	0.132	-0.263	0.472	-0.708
ULBP2 C50 (UniProt Q9BZM5)	0.55	0.273	-0.0282	0.36
UBR5 C739 (UniProt O95071)	0.0252	-0.542		-0.689
UBXN2B C127 (UniProt Q14CS0)	0.175	0.158		0.131
VPS33A C121 (UniProt Q96AX1)	-0.0902	0.169	0.115	0.252
USP8 C809 (UniProt P40818)	0.0922	0.189	-0.179	0.146
USP9X C1451 (UniProt Q93008)	-0.052	-0.0331	0.191	-0.129
VAC14 C101 (UniProt Q08AM6)	-0.273	-0.247	-0.341	-0.214
UROS C130 (UniProt P10746)	-0.142	-0.349	0.129	0.0776
VDAC2 C103	0.553	0.328	0.0934	0.19
UHRF1BP1L C1235 (UniProt A0JNW5)	0.691	0.15	0.542	-0.0913
USP30 C234 (UniProt Q70CQ3)	0.109	0.428	0.336	0.212
USP34 C1330 (UniProt Q70CQ2)	0.0998	-0.271	-0.209	-0.408
UBR5 C2267 (UniProt O95071)	0.554	-0.158	0.496	-0.141
VCL C85 (UniProt P18206)	-0.0329	-0.0643	0.0456	-0.162
USP28 C1058 (UniProt Q96RU2)	-0.065	0.046	0.445	0.155
UFL1 C32 (UniProt O94874)	-0.0682	-0.124	-0.00719	-0.0245
UTP20 C1757 (UniProt O75691)	-0.278	0.0207	-0.107	-0.0892
VEZT C412	0.589	0.31	-0.205	0.0741
UPF2 C990 (UniProt Q9HAU5)	0.00522	0.174	-0.572	-0.0667
VCPIP1 C160 (UniProt Q96JH7)	-0.418	0.0941	-0.315	-0.154

Target	log2 mean competition ratio ([1]; 50 µM)	log2 mean competition ratio ([1]; 200 µM)	log2 mean competition ratio ([2]; 50 µM)	log2 mean competition ratio ([2]; 200 µM)
USP48 C1021 (UniProt Q86UV5)	-0.241	-0.416	-0.295	-0.624
USP19 C1042 (UniProt O94966)	-0.463	-0.339	0.07	-0.274
USP14 C277 (UniProt P54578)	0.0689	0.00609	-0.186	-0.126
UTP11 C201 (UniProt Q9Y3A2)	0.0796	0.581	0.394	0.284
USP3 C157 (UniProt Q9Y6I4)	-0.295	0.593	-0.1	0.724
URB1 C1900 (UniProt O60287)	0.237	-0.247	0.0224	-0.307
UROS C119 (UniProt P10746)	-0.225	-0.326	-0.325	-0.399
UTRN C277 (UniProt P46939)	-0.0431	-0.345	-0.4	-0.347
VPS13D C1454 (UniProt Q5THJ4)	0.365	-0.0109	-0.201	-0.12
UNC119B C201 (UniProt A6NIH7)	0.132	0.0607	-0.0688	0.373
USF1 C229 (UniProt P22415)	-0.0147	0.144	-0.375	0.0114
USP42 C588 (UniProt Q9H9J4)	-0.00672	0.0135	-0.000213	0.00529
USP24 C1556 (UniProt Q9UPU5)	-0.0579	-0.269	-0.429	-0.277
UNC45A C118 (UniProt Q9H3U1)	-0.181	-0.133	0.469	0.0857
VPS28 C103 (UniProt Q9UK41)	0.326	0.231	0.026	0.158
USP11 C769 (UniProt P51784)	-0.0782	0.176	-0.588	-0.115
USP28 C733 (UniProt Q96RU2)	-0.0345	-0.0899	-0.355	-0.025
USP32 C786 (UniProt Q8NFA0)	0.163	0.729	-0.174	0.151
USP38 C834 (UniProt Q8NB14)	-0.188	0.24	-0.283	0.0214
VDAC1 C232	-0.219	-0.272	-0.281	-0.0597
USP24 C1580 (UniProt Q9UPU5)	0.0175	-0.318	0.304	-0.183
UNC45A C927 (UniProt Q9H3U1)	-0.127	-0.0557	-0.0375	0.0249
UTP14A C380 (UniProt Q9BVJ6)	-0.1	-0.0275	0.0167	0.402
UQCC2 C13 (UniProt Q9BRT2)	0.201	0.0415	0.0308	0.0635
VPS29 C15 (UniProt Q9UBQ0)	-0.0673	-0.0693	0.194	-0.0947

An excerpt from above, limited to log2 mean competition ratio ([1]; 50 µM), log2 mean competition ratio ([2]; 50 µM) and log2 mean competition ratio ([2]; 200 µM).
Target	log2 mean competition ratio ([1]; 50 µM)	log2 mean competition ratio ([2]; 50 µM)	log2 mean competition ratio ([2]; 200 µM)
VPS11 C128 (UniProt Q9H270)	-0.199	0.192	0.236
VPS16 C817 (UniProt Q9H269)	0.132	0.472	-0.708

Continuation.

Target	log2 mean competition ratio ([1]; 50 µM)	log2 mean competition ratio ([1]; 200 µM)	log2 mean competition ratio ([2]; 50 µM)	log2 mean competition ratio ([2]; 200 µM)
USP54 C1096 (UniProt Q70EL1)	0.191	0.453	0.103	0.55
UGGT1 C1386 (UniProt Q9NYU2)	0.268	0.316	0.405	0.355
VEZT C665	-0.156	-0.0135	-0.0916	0.0383
UPF1 C852 (UniProt Q92900)	0.123	0.106	0.232	-0.126
ULBP2 C34 (UniProt Q9BZM5)	-0.415	0.0844	0.0988	0.0684
URGCP C905 (UniProt Q8TCY9)	0.0187	-0.361	0.049	-0.322
USO1 C678 (UniProt O60763)	0.00127	-0.176	-0.217	-0.367
USP47 C1138 (UniProt Q96K76)	0.0813	0.106	-0.0175	0.107
UQCRC1 C410 (UniProt P31930)	-0.149	-0.0458	-0.121	0.0173
ULK3 C308 (UniProt Q6PHR2)	0.0462	-0.138	-0.0949	-0.181
UIMC1 C661 (UniProt Q96RL1)	0.117	0.145	-0.213	0.226
USP28 C142 (UniProt Q96RU2)	-0.0536	0.0966	0.452	0.133
VAPA C179 (UniProt Q9P0L0)	-0.0426	0.0809	-0.0281	0.114
VPS33B C259 (UniProt Q9H267)	-0.108	-0.22	0.135	-0.135
USP37 C318 (UniProt Q86T82)	0.103	0.302	-0.186	0.232
UTRN C2602 (UniProt P46939)	0.13	0.274	0.293	0.329
UNC13B C655 (UniProt O14795)	0.287	0.131	0.18	-0.209
UBR5 C2084 (UniProt O95071)	0.0154	0.0469	0.29	-0.12
UGDH C64 (UniProt O60701)	-0.0574	0.155	0.127	0.305
VDAC3 C36 (UniProt Q9Y277)	0.0146	-0.171	-0.358	-0.24
USP9X C673 (UniProt Q93008)	0.0871	-0.251	0.0666	-0.15
UHRF2 C42 (UniProt Q96PU4)	0.0774	0.379	-0.00706	0.307

Two neighbouring records from above:
Target	log2 mean competition ratio ([1]; 50 µM)	log2 mean competition ratio ([1]; 200 µM)	log2 mean competition ratio ([2]; 50 µM)	log2 mean competition ratio ([2]; 200 µM)
ULK3 C308 (UniProt Q6PHR2)	0.0462	-0.138	-0.0949	-0.181
UIMC1 C661 (UniProt Q96RL1)	0.117	0.145	-0.213	0.226
